# Assay results published in the supplement of paper PMC10849652.
# Protein sequences, listed by entry. Tags and fused reporters are not part of them. Lines headed by an entry give the natural chain unless they say otherwise; changes in a name come on top.
# UniProt Q969Y2: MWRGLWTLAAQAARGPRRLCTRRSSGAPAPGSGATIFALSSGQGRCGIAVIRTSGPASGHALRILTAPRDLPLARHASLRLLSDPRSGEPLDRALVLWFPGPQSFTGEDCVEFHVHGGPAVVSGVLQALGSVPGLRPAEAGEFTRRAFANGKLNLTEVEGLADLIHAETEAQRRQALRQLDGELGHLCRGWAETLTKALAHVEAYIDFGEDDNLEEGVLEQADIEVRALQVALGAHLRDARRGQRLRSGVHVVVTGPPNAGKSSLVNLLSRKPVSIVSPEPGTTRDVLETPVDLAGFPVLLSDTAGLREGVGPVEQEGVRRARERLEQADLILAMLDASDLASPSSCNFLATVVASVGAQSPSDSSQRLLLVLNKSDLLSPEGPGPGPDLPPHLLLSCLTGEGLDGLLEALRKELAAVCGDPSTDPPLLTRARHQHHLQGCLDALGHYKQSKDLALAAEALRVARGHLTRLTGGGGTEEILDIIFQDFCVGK
# UniProt Q92664: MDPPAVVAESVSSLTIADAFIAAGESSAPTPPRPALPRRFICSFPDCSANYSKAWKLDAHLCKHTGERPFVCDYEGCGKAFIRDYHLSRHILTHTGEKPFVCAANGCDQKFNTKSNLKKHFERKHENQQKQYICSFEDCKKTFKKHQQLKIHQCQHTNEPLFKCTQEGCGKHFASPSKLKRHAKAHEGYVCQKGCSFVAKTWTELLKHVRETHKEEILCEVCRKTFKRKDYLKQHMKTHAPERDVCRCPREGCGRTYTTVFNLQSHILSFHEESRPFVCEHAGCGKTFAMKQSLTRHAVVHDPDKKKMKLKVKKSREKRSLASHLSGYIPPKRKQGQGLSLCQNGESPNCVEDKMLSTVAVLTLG
# UniProt P56524: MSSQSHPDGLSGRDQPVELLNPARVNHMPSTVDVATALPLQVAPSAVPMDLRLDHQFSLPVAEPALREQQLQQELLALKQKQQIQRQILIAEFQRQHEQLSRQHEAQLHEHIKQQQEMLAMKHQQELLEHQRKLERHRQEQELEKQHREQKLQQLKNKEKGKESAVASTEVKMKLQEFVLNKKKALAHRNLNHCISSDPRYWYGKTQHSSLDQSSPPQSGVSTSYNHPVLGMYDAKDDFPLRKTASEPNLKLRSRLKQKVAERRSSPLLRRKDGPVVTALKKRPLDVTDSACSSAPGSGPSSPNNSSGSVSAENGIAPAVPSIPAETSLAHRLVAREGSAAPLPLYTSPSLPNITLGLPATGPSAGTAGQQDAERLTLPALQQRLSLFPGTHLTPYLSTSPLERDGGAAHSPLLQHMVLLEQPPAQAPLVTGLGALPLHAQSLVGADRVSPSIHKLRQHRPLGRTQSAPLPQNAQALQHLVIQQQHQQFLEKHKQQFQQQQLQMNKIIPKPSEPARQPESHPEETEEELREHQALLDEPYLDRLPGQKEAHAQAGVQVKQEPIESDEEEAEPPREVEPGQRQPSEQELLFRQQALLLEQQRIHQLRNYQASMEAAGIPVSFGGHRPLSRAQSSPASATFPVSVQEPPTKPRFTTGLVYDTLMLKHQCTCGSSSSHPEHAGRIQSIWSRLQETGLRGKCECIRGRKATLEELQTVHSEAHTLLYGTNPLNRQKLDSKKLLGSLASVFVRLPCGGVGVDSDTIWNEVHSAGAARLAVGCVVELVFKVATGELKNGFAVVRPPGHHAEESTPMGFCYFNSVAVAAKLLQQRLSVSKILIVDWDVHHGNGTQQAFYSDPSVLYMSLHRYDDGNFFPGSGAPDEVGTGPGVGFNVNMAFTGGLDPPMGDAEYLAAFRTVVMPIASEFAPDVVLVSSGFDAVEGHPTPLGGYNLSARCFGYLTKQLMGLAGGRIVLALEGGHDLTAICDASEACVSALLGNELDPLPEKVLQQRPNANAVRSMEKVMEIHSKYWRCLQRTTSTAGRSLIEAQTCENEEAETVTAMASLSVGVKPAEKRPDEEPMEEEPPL
# UniProt Q969S8: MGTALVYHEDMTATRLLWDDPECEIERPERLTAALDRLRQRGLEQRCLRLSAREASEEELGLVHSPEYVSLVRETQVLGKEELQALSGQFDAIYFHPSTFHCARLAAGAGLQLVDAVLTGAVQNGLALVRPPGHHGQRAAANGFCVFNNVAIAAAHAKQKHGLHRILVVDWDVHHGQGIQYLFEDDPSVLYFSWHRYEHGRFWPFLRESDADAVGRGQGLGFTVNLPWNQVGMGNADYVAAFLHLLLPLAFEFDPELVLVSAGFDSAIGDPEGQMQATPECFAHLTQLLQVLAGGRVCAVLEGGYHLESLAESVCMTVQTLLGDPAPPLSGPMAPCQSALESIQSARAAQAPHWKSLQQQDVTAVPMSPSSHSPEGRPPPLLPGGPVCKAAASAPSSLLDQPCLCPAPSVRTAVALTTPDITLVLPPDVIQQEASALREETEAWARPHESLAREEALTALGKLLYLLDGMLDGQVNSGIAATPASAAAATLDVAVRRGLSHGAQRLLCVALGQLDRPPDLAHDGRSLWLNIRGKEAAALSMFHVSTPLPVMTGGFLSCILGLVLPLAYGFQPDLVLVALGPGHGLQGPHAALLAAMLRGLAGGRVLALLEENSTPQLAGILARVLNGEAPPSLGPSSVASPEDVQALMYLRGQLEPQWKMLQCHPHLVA
# UniProt Q8WW33: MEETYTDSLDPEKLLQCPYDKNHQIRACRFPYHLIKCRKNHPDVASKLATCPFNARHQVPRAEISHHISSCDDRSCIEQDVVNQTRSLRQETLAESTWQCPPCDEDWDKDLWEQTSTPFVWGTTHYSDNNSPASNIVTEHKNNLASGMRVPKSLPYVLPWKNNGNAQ
# UniProt Q13888: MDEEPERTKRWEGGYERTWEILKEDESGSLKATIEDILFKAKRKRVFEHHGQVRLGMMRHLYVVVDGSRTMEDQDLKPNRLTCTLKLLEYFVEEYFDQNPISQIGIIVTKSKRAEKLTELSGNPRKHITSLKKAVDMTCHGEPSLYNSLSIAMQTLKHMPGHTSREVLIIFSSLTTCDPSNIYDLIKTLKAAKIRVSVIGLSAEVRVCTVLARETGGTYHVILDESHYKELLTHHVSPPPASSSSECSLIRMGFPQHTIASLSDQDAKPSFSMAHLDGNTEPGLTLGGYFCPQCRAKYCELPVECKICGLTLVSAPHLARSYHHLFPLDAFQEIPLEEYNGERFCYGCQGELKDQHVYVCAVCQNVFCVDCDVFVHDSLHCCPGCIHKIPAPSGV
# UniProt P30711: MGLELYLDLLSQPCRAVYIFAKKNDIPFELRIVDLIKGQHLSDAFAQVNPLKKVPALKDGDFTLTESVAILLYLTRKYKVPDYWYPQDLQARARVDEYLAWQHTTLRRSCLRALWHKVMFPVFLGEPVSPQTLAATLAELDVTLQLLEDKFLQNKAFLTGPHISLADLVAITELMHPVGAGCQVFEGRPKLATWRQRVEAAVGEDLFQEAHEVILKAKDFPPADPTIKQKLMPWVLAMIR
# UniProt Q9UQL6: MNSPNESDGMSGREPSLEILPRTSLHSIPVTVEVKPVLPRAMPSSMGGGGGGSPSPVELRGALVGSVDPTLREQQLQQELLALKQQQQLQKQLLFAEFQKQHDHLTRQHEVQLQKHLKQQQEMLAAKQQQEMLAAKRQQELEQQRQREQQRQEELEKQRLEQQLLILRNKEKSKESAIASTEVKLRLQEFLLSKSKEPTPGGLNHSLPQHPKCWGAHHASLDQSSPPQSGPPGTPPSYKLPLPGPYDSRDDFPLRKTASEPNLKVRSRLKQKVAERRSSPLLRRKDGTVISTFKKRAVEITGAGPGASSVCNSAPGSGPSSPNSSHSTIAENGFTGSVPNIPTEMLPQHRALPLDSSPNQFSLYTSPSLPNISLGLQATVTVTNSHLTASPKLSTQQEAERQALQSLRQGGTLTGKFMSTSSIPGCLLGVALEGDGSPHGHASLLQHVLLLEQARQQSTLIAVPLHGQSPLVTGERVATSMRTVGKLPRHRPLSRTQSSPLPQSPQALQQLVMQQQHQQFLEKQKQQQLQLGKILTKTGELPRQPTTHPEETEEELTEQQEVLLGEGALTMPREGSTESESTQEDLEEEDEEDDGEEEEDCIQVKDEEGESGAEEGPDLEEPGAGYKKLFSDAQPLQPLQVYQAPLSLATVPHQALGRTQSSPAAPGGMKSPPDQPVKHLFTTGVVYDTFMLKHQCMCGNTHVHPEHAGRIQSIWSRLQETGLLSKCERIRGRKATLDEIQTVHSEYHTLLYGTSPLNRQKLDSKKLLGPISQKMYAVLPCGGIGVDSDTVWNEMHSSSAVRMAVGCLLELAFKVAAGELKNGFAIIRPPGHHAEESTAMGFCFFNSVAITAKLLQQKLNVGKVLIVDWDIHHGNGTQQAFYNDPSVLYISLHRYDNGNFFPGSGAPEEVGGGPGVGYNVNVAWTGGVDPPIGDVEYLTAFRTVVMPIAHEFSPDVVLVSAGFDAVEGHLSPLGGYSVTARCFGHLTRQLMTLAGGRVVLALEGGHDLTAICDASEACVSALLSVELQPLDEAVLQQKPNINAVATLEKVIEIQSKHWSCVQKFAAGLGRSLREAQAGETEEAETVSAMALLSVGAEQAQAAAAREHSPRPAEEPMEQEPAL
# UniProt P16402, whole entry, looked up: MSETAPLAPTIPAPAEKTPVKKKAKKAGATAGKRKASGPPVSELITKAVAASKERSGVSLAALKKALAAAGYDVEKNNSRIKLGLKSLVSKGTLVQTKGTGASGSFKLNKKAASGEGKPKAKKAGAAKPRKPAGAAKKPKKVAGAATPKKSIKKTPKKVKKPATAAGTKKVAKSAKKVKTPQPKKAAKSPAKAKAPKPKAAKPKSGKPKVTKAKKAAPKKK
# UniProt P02724: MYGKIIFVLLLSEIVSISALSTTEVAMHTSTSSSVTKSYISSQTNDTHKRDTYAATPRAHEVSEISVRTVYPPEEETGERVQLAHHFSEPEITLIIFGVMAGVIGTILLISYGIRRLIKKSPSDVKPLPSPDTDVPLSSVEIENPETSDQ
# UniProt P35269, whole entry, looked up: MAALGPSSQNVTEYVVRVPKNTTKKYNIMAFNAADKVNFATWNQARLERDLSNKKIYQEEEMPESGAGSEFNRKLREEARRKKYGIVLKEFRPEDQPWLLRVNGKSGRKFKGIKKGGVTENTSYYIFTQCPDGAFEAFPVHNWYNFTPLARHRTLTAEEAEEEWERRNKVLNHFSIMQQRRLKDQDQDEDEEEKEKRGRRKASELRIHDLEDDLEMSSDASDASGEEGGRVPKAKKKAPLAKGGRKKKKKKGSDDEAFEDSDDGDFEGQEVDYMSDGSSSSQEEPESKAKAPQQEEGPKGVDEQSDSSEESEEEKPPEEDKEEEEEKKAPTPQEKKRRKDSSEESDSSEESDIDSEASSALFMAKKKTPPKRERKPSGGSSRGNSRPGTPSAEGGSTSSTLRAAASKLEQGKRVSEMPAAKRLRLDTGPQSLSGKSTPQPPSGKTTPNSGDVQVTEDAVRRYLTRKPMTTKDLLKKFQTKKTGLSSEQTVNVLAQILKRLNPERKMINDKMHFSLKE
# UniProt Q4G148: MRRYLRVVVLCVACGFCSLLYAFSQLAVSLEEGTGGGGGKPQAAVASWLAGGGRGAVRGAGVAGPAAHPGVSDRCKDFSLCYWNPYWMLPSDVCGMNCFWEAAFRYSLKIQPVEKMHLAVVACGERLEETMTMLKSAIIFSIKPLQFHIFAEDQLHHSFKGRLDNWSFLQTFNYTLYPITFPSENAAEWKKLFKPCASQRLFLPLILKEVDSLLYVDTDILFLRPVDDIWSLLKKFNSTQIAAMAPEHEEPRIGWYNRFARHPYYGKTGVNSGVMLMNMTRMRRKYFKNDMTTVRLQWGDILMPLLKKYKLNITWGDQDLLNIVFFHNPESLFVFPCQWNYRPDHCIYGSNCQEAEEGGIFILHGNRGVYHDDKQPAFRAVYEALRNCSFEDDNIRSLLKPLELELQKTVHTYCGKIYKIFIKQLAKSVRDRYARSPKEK
# UniProt Q04756: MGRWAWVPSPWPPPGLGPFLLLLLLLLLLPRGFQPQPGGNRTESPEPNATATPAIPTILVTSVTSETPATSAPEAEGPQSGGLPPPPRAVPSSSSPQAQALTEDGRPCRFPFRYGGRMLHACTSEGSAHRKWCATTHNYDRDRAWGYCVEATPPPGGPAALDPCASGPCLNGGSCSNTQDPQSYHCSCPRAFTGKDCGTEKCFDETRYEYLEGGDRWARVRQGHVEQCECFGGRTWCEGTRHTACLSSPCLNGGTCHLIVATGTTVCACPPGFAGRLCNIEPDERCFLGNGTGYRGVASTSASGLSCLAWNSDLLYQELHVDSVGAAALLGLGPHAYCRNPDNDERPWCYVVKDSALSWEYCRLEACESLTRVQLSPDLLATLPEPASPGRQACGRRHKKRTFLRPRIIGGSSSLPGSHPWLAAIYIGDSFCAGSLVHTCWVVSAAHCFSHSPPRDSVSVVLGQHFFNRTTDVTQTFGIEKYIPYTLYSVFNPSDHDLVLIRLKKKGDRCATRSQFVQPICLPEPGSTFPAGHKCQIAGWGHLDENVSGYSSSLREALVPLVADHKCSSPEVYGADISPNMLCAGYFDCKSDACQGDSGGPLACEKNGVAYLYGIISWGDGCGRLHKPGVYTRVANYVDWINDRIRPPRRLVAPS
# Some of the results follow.
# Assays:
# Assay in all cases: log2 fold change, soluble protein after heating vs DMSO (PISA); higher = thermal stabilisation; K562 cells, 10 uM, 30 min; active = over 0.2 and 3.5 SD of the protein, either way, in both replicates (recomputed)
# [1] = compound: C#Cc1cccc(Nc2ncnc3cc(OCCOC)c(OCCOC)cc23)c1 [erlotinib]
# Method in brief: (§1)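 K562 cells at 2×10^6 cells/mL were given 10 μM compound for 30 min. Aliquots then went through 3 min of heating across 48°C-58°C, were pooled, and were extracted in PBS with 0.5% NP-40 at 4°C, and the supernatant after 21,000xg for 90 min was quantified by TMTpro 16plex LC-MS/MS with channel sums equalised. Thermal stability relative to control samples, from duplicates, is given as log2 fold change.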
# [2] = compound: C/C(=N\NC(=O)C1=CC(=CC=C1)S(=O)(=O)N2CCOCC2)/C3=C(C=CC(=C3)Cl)O
# Method in brief: as §1
# [3] = compound: C1=CC(=C(C=C1Cl)C2=NC3=NC=CN=C3C(=N2)NC4=CC=NC=C4)F
# Method in brief: as §1
# [4] = compound: C1=CC(=CC=C1C2=NC3=C(N2)C=C(C=C3)C(=O)N)OC4=CC=C(C=C4)Cl
# Method in brief: as §1
# [5] = compound: C1=CC2=C(C=CC(=C2)/C=C\3/C(=O)NC(=NCC4=CC=CS4)S3)N=C1
# Method in brief: as §1
# [6] = compound: C1=CC2=NC=CN=C2C=C1/C=C/3\C(=O)NC(=O)S3
# Method in brief: as §1
# [7] = compound: C1=CC=C(C=C1)C2=NC(=C(N2)C3=CC=NC=C3)C4=CC(=C(C=C4)Cl)O
# Method in brief: as §1
# [8] = compound: C1=CC=C2C(=C1)C3=NNC4=CC=CC(=C43)C2=O
# Method in brief: as §1
# [9] = compound: C1CCN(C1)C(=O)NC2=CC=CC(=C2)NC3=NC=C(C(=N3)NCCC4=CN=CN4)Br
# Method in brief: as §1
# [10] = compound: C1CN(CCC1(CC2=CC=C(C=C2)Cl)N)C3=NC=NC4=C3C=CN4
# Method in brief: as §1
Target,log2 fold change [1],log2 fold change [2],log2 fold change [3],log2 fold change [4],log2 fold change [5],log2 fold change [6],log2 fold change [7],log2 fold change [8],log2 fold change [9],log2 fold change [10]
HBS1L isoform 2 (UniProt Q9Y450),inactive: 0.031,inactive: -0.048,inactive: -0.019,inactive: -0.003,inactive: -0.084,inactive: 0.036,inactive: 0.034,inactive: 0.005,inactive: 0.032,inactive: -0.075
GSTM2 (UniProt P28161),inactive: 0.061,inactive: 0.019,inactive: 0.02,inactive: -0.045,inactive: 0.036,inactive: 0.067,inactive: -0.054,inactive: -0.004,inactive: 0.008,inactive: 0.034
H6PD (UniProt O95479),inactive: 0.018,inactive: -0.078,inactive: -0.096,inactive: 0.032,inactive: 0.068,–,inactive: -0.025,inactive: 0.032,inactive: -0.034,inactive: 0.01
HDAC3 isoform 2 (UniProt O15379),inactive: -0.068,inactive: 0.084,inactive: 0.055,inactive: 0,inactive: 0.041,inactive: -0.075,inactive: -0.071,inactive: -0.031,inactive: -0.046,inactive: 0.014
GTPBP3 isoform 2 (UniProt Q969Y2),inactive: 0.02,inactive: -0.038,inactive: 0.038,inactive: 0.011,inactive: 0.037,inactive: 0.006,inactive: -0.001,inactive: -0.022,inactive: -0.038,inactive: 0.031
GTF3A (UniProt Q92664),inactive: -0.048,inactive: -0.117,inactive: 0.095,inactive: 0.116,inactive: 0.157,inactive: 0.004,–,inactive: -0.115,inactive: -0.019,inactive: 0.174
HELZ (UniProt P42694),inactive: 0.094,inactive: 0.283,–,inactive: -0.126,inactive: 0.068,inactive: 0.109,inactive: 0.202,inactive: -0.047,–,–
HCLS1 (UniProt P14317),inactive: 0.023,inactive: 0.014,inactive: 0.016,inactive: 0,inactive: 0.019,inactive: 0.047,inactive: -0.03,inactive: -0.006,inactive: -0.001,inactive: 0.015
HDAC4 (UniProt P56524),inactive: 0.133,inactive: -0.146,inactive: -0.067,inactive: -0.151,inactive: -0.042,inactive: 0.023,inactive: -0.116,inactive: -0.02,inactive: -0.207,inactive: 0.173
HDDC2 (UniProt Q7Z4H3),inactive: -0.014,inactive: 0.059,inactive: 0.039,inactive: 0.018,inactive: -0.072,inactive: 0.034,active: 0.292,inactive: 0.024,inactive: -0.039,inactive: 0.076
HERC4 (UniProt Q5GLZ8),inactive: 0.018,inactive: 0.053,inactive: 0.06,inactive: -0.012,inactive: 0.019,inactive: 0.025,inactive: 0.007,inactive: 0.012,inactive: 0.016,inactive: 0.049
GTF2A1 (UniProt P52655),inactive: -0.011,inactive: -0.052,inactive: 0.001,inactive: -0.011,inactive: -0.094,inactive: 0.034,inactive: -0.021,inactive: -0.029,inactive: -0.024,inactive: 0.036
HDAC10 (UniProt Q969S8),inactive: 0.065,inactive: -0.067,–,inactive: 0.038,inactive: -0.277,inactive: 0.066,inactive: 0.045,inactive: -0.072,active: -0.729,inactive: 0.333
GSTM5 (UniProt P46439),inactive: -0.062,inactive: 0.076,inactive: 0.084,inactive: 0.024,inactive: 0.009,inactive: 0.146,–,inactive: 0.009,inactive: 0.002,inactive: -0.092
GTSF1 (UniProt Q8WW33),inactive: 0.032,inactive: 0.002,inactive: 0.029,inactive: -0.002,inactive: -0.055,inactive: 0.01,inactive: -0.105,inactive: -0.057,inactive: 0.009,inactive: 0.047
GTF2H2 (UniProt Q13888),inactive: 0.032,inactive: 0.006,inactive: -0.039,inactive: -0.012,inactive: 0.044,inactive: 0.026,inactive: 0,inactive: -0.025,inactive: -0.055,inactive: 0.001

Target,log2 fold change [1],log2 fold change [2],log2 fold change [3],log2 fold change [4],log2 fold change [5],log2 fold change [6],log2 fold change [7],log2 fold change [8],log2 fold change [9],log2 fold change [10]
GSTT1 (UniProt P30711),inactive: 0.037,inactive: -0.007,inactive: 0.275,inactive: 0.033,inactive: 0.114,inactive: 0.037,inactive: -0.044,inactive: -0.031,inactive: 0.003,inactive: -0.028
HDAC5 isoform 3 (UniProt Q9UQL6),inactive: -0.075,inactive: 0.141,inactive: -0.129,inactive: -0.041,inactive: -0.059,inactive: 0.028,–,inactive: 0.001,inactive: -0.063,inactive: 0.009
H1-3 (UniProt P16402),inactive: -0.169,inactive: -0.13,inactive: -0.489,inactive: 0.015,inactive: -0.098,inactive: -0.021,inactive: 0.007,inactive: 0.113,inactive: -0.059,inactive: -0.386
GYPA (UniProt P02724),inactive: -0.057,inactive: 0.036,inactive: 0.08,inactive: 0.035,inactive: -0.037,inactive: -0.139,inactive: -0.11,inactive: -0.054,inactive: -0.011,inactive: 0.098
HACL1 (UniProt Q9UJ83),inactive: -0.015,inactive: -0.014,inactive: 0.105,inactive: -0.038,inactive: -0.006,inactive: 0.048,inactive: 0.006,inactive: 0.026,inactive: 0.002,inactive: 0.051
HERPUD2 (UniProt Q9BSE4),inactive: 0.01,inactive: -0.067,–,inactive: 0.049,inactive: 0.069,inactive: -0.27,inactive: 0.034,inactive: 0.121,–,–
HAUS6 (UniProt Q7Z4H7),inactive: 0.029,inactive: -0.097,inactive: -0.307,inactive: -0.117,inactive: 0.2,inactive: 0.054,inactive: -0.07,inactive: -0.055,inactive: 0.168,inactive: -0.091
HAUS3 (UniProt Q68CZ6),inactive: -0.014,inactive: 0.117,inactive: -0.539,inactive: 0.122,inactive: -0.108,–,inactive: -0.017,inactive: 0.042,inactive: 0.025,inactive: -0.185
GTF2F1 (UniProt P35269),inactive: 0.027,inactive: -0.008,inactive: 0.028,inactive: -0.013,inactive: -0.005,inactive: -0.009,inactive: 0.032,inactive: 0.022,inactive: 0,inactive: 0.012
GSKIP (UniProt Q9P0R6),inactive: 0.022,inactive: -0.014,–,inactive: 0.019,inactive: 0.049,inactive: 0.083,inactive: 0.228,inactive: -0.015,inactive: -0.01,inactive: -0.04
HEPH isoform 3 (UniProt Q9BQS7),inactive: -0.024,inactive: -0.049,inactive: -0.068,inactive: 0.017,inactive: 0.019,inactive: 0.014,inactive: -0.01,inactive: -0.068,inactive: -0.001,inactive: 0.016
GSN (UniProt P06396),inactive: -0.023,inactive: -0.032,inactive: 0.051,inactive: 0.023,inactive: 0.038,inactive: -0.014,inactive: -0.023,inactive: -0.094,inactive: 0.028,inactive: 0.106
GXYLT1 (UniProt Q4G148),inactive: -0.005,inactive: -0.023,inactive: 0.15,inactive: 0.035,inactive: -0.037,inactive: -0.185,inactive: 0.115,inactive: 0.008,inactive: -0.043,inactive: 0.023
HECTD4 (UniProt Q9Y4D8),inactive: -0.08,–,–,inactive: -0.038,–,–,–,–,–,–
HFM1 (UniProt A2PYH4),–,–,–,–,–,inactive: 0.117,–,–,–,–
HGFAC (UniProt Q04756),inactive: -0.281,–,inactive: 0.222,inactive: 0.27,–,inactive: 0.093,–,–,inactive: -0.043,inactive: 0.221

# 8 entries from above, tab-delimited:
Target	log2 fold change [1]	log2 fold change [2]	log2 fold change [3]	log2 fold change [4]	log2 fold change [5]	log2 fold change [6]	log2 fold change [7]	log2 fold change [8]	log2 fold change [9]	log2 fold change [10]
GSTM2 (UniProt P28161)	inactive: 0.061	inactive: 0.019	inactive: 0.02	inactive: -0.045	inactive: 0.036	inactive: 0.067	inactive: -0.054	inactive: -0.004	inactive: 0.008	inactive: 0.034
H6PD (UniProt O95479)	inactive: 0.018	inactive: -0.078	inactive: -0.096	inactive: 0.032	inactive: 0.068	–	inactive: -0.025	inactive: 0.032	inactive: -0.034	inactive: 0.01
GTF3A (UniProt Q92664)	inactive: -0.048	inactive: -0.117	inactive: 0.095	inactive: 0.116	inactive: 0.157	inactive: 0.004	–	inactive: -0.115	inactive: -0.019	inactive: 0.174
HDAC10 (UniProt Q969S8)	inactive: 0.065	inactive: -0.067	–	inactive: 0.038	inactive: -0.277	inactive: 0.066	inactive: 0.045	inactive: -0.072	active: -0.729	inactive: 0.333
GTSF1 (UniProt Q8WW33)	inactive: 0.032	inactive: 0.002	inactive: 0.029	inactive: -0.002	inactive: -0.055	inactive: 0.01	inactive: -0.105	inactive: -0.057	inactive: 0.009	inactive: 0.047
GTF2H2 (UniProt Q13888)	inactive: 0.032	inactive: 0.006	inactive: -0.039	inactive: -0.012	inactive: 0.044	inactive: 0.026	inactive: 0	inactive: -0.025	inactive: -0.055	inactive: 0.001
H1-3 (UniProt P16402)	inactive: -0.169	inactive: -0.13	inactive: -0.489	inactive: 0.015	inactive: -0.098	inactive: -0.021	inactive: 0.007	inactive: 0.113	inactive: -0.059	inactive: -0.386
GXYLT1 (UniProt Q4G148)	inactive: -0.005	inactive: -0.023	inactive: 0.15	inactive: 0.035	inactive: -0.037	inactive: -0.185	inactive: 0.115	inactive: 0.008	inactive: -0.043	inactive: 0.023
